Measured values as given in patent US20250283871A1, “COMPOSITIONS AND METHODS FOR MODULATING THE INTERACTION BETWEEN SS18-SSX FUSION ONCOPROTEIN AND NUCLEOSOMES” (Dana-Farber Cancer Institute, Inc., priority 2020, published 2025).

System: BAF complex subunits and histone proteins
Assay: Mass spectrometry proteomics of purified HA-SS18 WT and HA-SS18-SSX1 complexes (Tables 5A-5E)
Parameters: species or system human
Details: HEK-293T
[1] = HA-SS18SSX1_CHR_peptides: protein identified in the HA-SS18-SSX1 purification from solubilized chromatin (CHR)
[2] = HA-SS18SSX1 purification, NE (soluble nuclear extract) fraction, peptides per identified protein
[3] = HA-SS18WT_CHR_peptides: HA-SS18 WT purification from nuclease-treated solubilized chromatin (CHR), label = protein identified
[4] = HA-SS18WT_NE_peptides: proteins co-purified with HA-SS18 WT from nuclear extract (NE)

| Molecule | Total (total peptides) [1] | Unique (unique peptides) [1] | Total (total peptides) [2] | Unique (unique peptides) [2] | Total (peptides) [3] | Unique (peptides) [3] | Total (peptides) [4] | Unique (peptides) [4] |
| --- | --- | --- | --- | --- | --- | --- | --- | --- |
| KRR1 (protein, UniProt Q13601 2-381, looked up) KRR1 small subunit processome …: ASPSLERPEKGAGKSEFRNQKPKPENQDESELLTVPDGWKEPAFSKEDNPRGLLEESSFATLFPKYREAYLKECWPLVQKALNEHHVNATLDLIEGSMTVCTTKKTFDPYIIIRARDLIKLLARSVSFEQAVRILQDDVACDIIKIGSLVRNKERFVKRRQRLIGPKGSTLKALELLTNCYIMVQGNTVSAIGPFSGLKEVRKVVLDTMKNIHPIYNIKSLMIKRELAKDSELRSQSWERFLPQFKHKNVNKRKEPKKKTVKKEYTPFPPPQPESQIDKELASGEYFLKANQKKRQKMEAIKAKQAEAISKRQEERNKAFIPPKEKPIVKPKEASTETKIDVASIKEKVKKAKNKKLGALTAEEIALKMEADEKKKKKKK | 10 | 9 | 4 | 4 | 14 | 11 | 1 | 1 |
| ZMYM3 (protein, UniProt Q14202 1-1370, looked up) Zinc finger MYM-type protein 3: MDPSDFPSPFDPLTLPEKPLAGDLPVDMEFGEDLLESQTAPTRGWAPPGPSPSSGALDLLDTPAGLEKDPGVLDGATELLGLGGLLYKAPSPPEVDHGPEGTLAWDAGDQTLEPGPGGQTPEVVPPDPGAGANSCSPEGLLEPLAPDSPITLQSPHIEEEETTSIATARRGSPGQEEELPQGQPQSPNAPPSPSVGETLGDGINSSQTKPGGSSPPAHPSLPGDGLTAKASEKPPERKRSERVRRAEPPKPEVVDSTESIPVSDEDSDAMVDDPNDEDFVPFRPRRSPRMSLRSSVSQRAGRSAVGTKMTCAHCRTPLQKGQTAYQRKGLPQLFCSSSCLTTFSKKPSGKKTCTFCKKEIWNTKDSVVAQTGSGGSFHEFCTSVCLSLYEAQQQRPIPQSGDPADATRCSICQKTGEVLHEVSNGSVVHRLCSDSCFSKFRANKGLKTNCCDQCGAYIYTKTGSPGPELLFHEGQQKRFCNTTCLGAYKKKNTRVYPCVWCKTLCKNFEMLSHVDRNGKTSLFCSLCCTTSYKVKQAGLTGPPRPCSFCRRSLSDPCYYNKVDRTVYQFCSPSCWTKFQRTSPEGGIHLSCHYCHSLFSGKPEVLDWQDQVFQFCCRDCCEDFKRLRGVVSQCEHCRQEKLLHEKLRFSGVEKSFCSEGCVLLYKQDFTKKLGLCCITCTYCSQTCQRGVTEQLDGSTWDFCSEDCKSKYLLWYCKAARCHACKRQGKLLETIHWRGQIRHFCNQQCLLRFYSQQNQPNLDTQSGPESLLNSQSPESKPQTPSQTKVENSNTVRTPEENGNLGKIPVKTRSAPTAPTPPPPPPPATPRKNKAAMCKPLMQNRGVSCKVEMKSKGSQTEEWKPQVIVLPIPVPIFVPVPMHLYCQKVPVPFSMPIPVPVPMFLPTTLESTDKIVETIEELKVKIPSNPLEADILAMAEMIAEAEELDKASSDLCDLVSNQSAEGLLEDCDLFGPARDDVLAMAVKMANVLDEPGQDLEADFPKNPLDINPSVDFLFDCGLVGPEDVSTEQDLPRTMRKGQKRLVLSESCSRDSMSSQPSCTGLNYSYGVNAWKCWVQSKYANGETSKGDELRFGPKPMRIKEDILACSAAELNYGLAQFVREITRPNGERYEPDSIYYLCLGIQQYLLENNRMVNIFTDLYYLTFVQELNKSLSTWQPTLLPNNTVFSRVEEEHLWECKQLGVYSPFVLLNTLMFFNTKFFGLQTAEEHMQLSFTNVVRQSRKCTTPRGTTKVVSIRYYAPVRQRKGRDTGPGKRKREDEAPILEQRENRMNPLRCPVKFYEFYLSKCPESLRTRNDVFYLQPERSCIAESPLWYSVIPMDRSMLESMLNRILAVREIYEELGRPGEEDLD | 10 | 9 | – | – | 6 | 6 | – | – |
